# Screening data, single-dose tests

The filed quantity is “Percent Effect” (%). The controls that fix the scale are not given in the record; negative values are as filed. The compounds are a random part of those screened. Two or more numbers in one place are separate tests of the same structure; such repeats can differ widely.

Mtb cholesterol medium: 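Whole-cell growth test on Mycobacterium tuberculosis, read after 4 days in a medium based on cholesterol and the lipid DPPC; the read-out is not stated. Compounds at 50 µM. The record gives no direction; compounds that gave an IC50 in retests scored well above the rest, so higher reads as more growth inhibition. About 69,000 compounds were tested under these conditions; 0.54% (about 370) showed 50% or more at least once.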
Mtb glucose medium: 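Phenotypic screen: M. tuberculosis growth, glucose 7H9 medium, 3 days; the read-out is not stated. Compounds at 50 µM. The record gives no direction; compounds that gave an IC50 in retests scored well above the rest, so higher reads as more growth inhibition. Size under these conditions: about 69,000 compounds, about 760 of them at 50% or above in at least one test.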

- CCCN1CCC(Nc2nc(C)ns2)CC1 | Mtb cholesterol medium: 7.019%; Mtb glucose medium: 10.91%
- CN(Cc1ccco1)Cc1cncc2c1CCN(Cc1ccoc1)C2.Cl.Cl.Cl | Mtb cholesterol medium: 17.25%; Mtb glucose medium: 2.552%
- CCOc1ccc(CN2CCN(C(=O)c3ccc(C)n3C)CC2)cc1 | Mtb cholesterol medium: 13.93%; Mtb glucose medium: 24.62%
- CN(Cc1ccc2c(c1)OCCO2)Cc1nc2c(cnn2C)c(=O)[nH]1 | Mtb cholesterol medium: -2.971%; Mtb glucose medium: 36.75%
- O=C(O)C(F)(F)F.[H][C@@]12CCN(c3nnc(C)s3)C[C@]1([H])O[C@@H](C(=O)NC)C2 | Mtb cholesterol medium: -9.318% & 8.968%; Mtb glucose medium: -8.403%
- Cc1ncncc1C(=O)N1CCCC1c1c(C)nn(C)c1Cl (stereo not shown) | Mtb cholesterol medium: 14.5%; Mtb glucose medium: 16.65%
- CN1CCCCC1c1cncc(Cl)n1.Cl (stereo not shown) | Mtb cholesterol medium: 2.196% & 5.141%; Mtb glucose medium: 0.04482%
- CCCN(Cc1ccccc1O)S(=O)(=O)C(C)CC (stereo not shown) | Mtb cholesterol medium: 11.65%; Mtb glucose medium: 37.58%
- O=C(O)C(F)(F)F.O=C(O)C(F)(F)F.[H][C@@]12COC[C@]1(COc1ccccn1)CN(C1CCOCC1)C2 | Mtb cholesterol medium: -9.937%; Mtb glucose medium: -18.39%
- Cc1nn(C)c(C)c1C1CCCN1C(=O)c1ccc(CN(C)C)cc1 (stereo not shown) | Mtb cholesterol medium: -29.17%; Mtb glucose medium: -5.425%
- FC(F)(F)c1ccc2[nH]c([C@H]3CCNC3)nc2c1 | Mtb cholesterol medium: 19.73%; Mtb glucose medium: 42.93% & 27.11%
- COc1ccc(C)cc1-n1cnnc1CC1CCNCC1 | Mtb cholesterol medium: 15.4%; Mtb glucose medium: 9.433%
- COc1ccc(CNC(=O)Nc2ccc(=O)n(C)c2)cc1 | Mtb cholesterol medium: -0.9592%; Mtb glucose medium: -2.231%
- CNc1nc(CNC(=O)Nc2ccccc2C(F)(F)F)cs1 | Mtb cholesterol medium: 10.48%; Mtb glucose medium: -2.052%
- O=C(O)C(F)(F)F.O=C(O)C(F)(F)F.c1cn2c(n1)CN(CC1CC1)CC(CN1CCOCC1)C2 (stereo not shown) | Mtb cholesterol medium: -25.52%; Mtb glucose medium: -13.8%
- N[C@@H]1c2ccccc2C2(CCN(C(=O)c3ccccc3O)CC2)[C@H]1O | Mtb cholesterol medium: 0.5678%; Mtb glucose medium: 2.281%
- CC(c1ccncc1)N(CCN(C)C)C(=O)Nc1ccc(Cl)cc1 (stereo not shown) | Mtb cholesterol medium: -2.78%; Mtb glucose medium: 16.33%
- COCC(C)(O)CNC(=O)c1cc(-c2ccc(F)cc2)nn1C (stereo not shown) | Mtb cholesterol medium: -13.75%; Mtb glucose medium: 12.76%
- Cc1cc(C(=O)N2CCCCC2c2nc(C)cs2)[nH]n1 (stereo not shown) | Mtb cholesterol medium: 2.923%; Mtb glucose medium: 27.58%
- Cc1nc(C)n(C2CCCN(C(=O)Cc3cccnc3)C2)n1 (stereo not shown) | Mtb cholesterol medium: -0.7479% & 13.13%; Mtb glucose medium: 7.735%
- CC(=O)N1CCN(CCNS(=O)(=O)c2cccc(F)c2)CC1 | Mtb cholesterol medium: -4.137%; Mtb glucose medium: -0.7333%
- O=C(c1ccccc1F)N1CC(c2nc(C3CC3)no2)C1 | Mtb cholesterol medium: -6.179%; Mtb glucose medium: 5.361% & 4.076%
- COc1cccc(C)c1C(=O)N1C[C@@H](CN(C)C)[C@@H](CO)C1 | Mtb cholesterol medium: -11.43%; Mtb glucose medium: -20.14%
- Cc1ccc(S(=O)(=O)N2CCN(CCCO)CC2)s1 | Mtb cholesterol medium: -13.27% & -6.305%; Mtb glucose medium: -19.41%
- O[C@H]1Cc2ccccc2[C@H]1n1ccnc1-c1cc2n(n1)CCNC2 | Mtb cholesterol medium: 8.974%; Mtb glucose medium: 24.86% & -0.6987%
- CSCC(C)(O)CNc1ccccn1 (stereo not shown) | Mtb cholesterol medium: 13.63%; Mtb glucose medium: 11.95%
- Cc1nc(CN2CCN(C(=O)CCc3nc(C(C)(C)C)no3)CC2)cs1 | Mtb cholesterol medium: -7.633%; Mtb glucose medium: -1.08%
- COCC(=O)N1CCCC1c1csc(Nc2cnccn2)n1 (stereo not shown) | Mtb cholesterol medium: -7.815%; Mtb glucose medium: 23.96%
- Cc1cccc(C(=O)NCc2ccc(N3CCCCCC3)nc2)n1 | Mtb cholesterol medium: 3.966%; Mtb glucose medium: 8.886%

Repeated from the top, 4 entries:

compound,Mtb cholesterol medium,Mtb glucose medium
CCCN1CCC(Nc2nc(C)ns2)CC1,7.019,10.91
CN(Cc1ccco1)Cc1cncc2c1CCN(Cc1ccoc1)C2.Cl.Cl.Cl,17.25,2.552
CCOc1ccc(CN2CCN(C(=O)c3ccc(C)n3C)CC2)cc1,13.93,24.62
CN(Cc1ccc2c(c1)OCCO2)Cc1nc2c(cnn2C)c(=O)[nH]1,-2.971,36.75

Data taken from ChEMBL document CHEMBL3988442, “University of Dundee, Small-Polar-MMV Screening Library” (2021).